pIC50: −log10 of the molar value. Some of these results come from one statement about several compounds together. Starred links: 1 amine or outer side, 2 acyl side, 3 side chain; linkers in the order of their positions; H or OH if unused. Positions of bridges follow the written chain, without caps; N, C: chain ends. Non-standard residues stand in square brackets, D forms with d. Residues, ends and D or L forms follow the SMILES beside them. ξ: configuration not given here. *: point of attachment. Bip(4'-NHCO-C6H4-3-CH2COOH) = N[C@@H](Cc1ccc(-c2ccc(NC(=O)c3cccc(CC(=O)O)c3)cc2)cc1)C(=O)O; Bip(4'-NHCO-C6H4-4-CH2COOH) = N[C@@H](Cc1ccc(-c2ccc(NC(=O)c3ccc(CC(=O)O)cc3)cc2)cc1)C(=O)O; Bip(4'-NH) = O=C([C@H](Cc1ccc(-c2ccc(N[*:3])cc2)cc1)N[*:1])[*:2]; Bip(4'-COOH) = N[C@@H](Cc1ccc(-c2ccc(C(=O)O)cc2)cc1)C(=O)O; Bip(4'-NHAc) = CC(=O)Nc1ccc(-c2ccc(C[C@H](N)C(=O)O)cc2)cc1; Ala(imidazol-2-yl) = N[C@@H](Cc1ncc[nH]1)C(=O)O; Ala(morpholin-4-yl) = N[C@@H](CN1CCOCC1)C(=O)O; Benzoyl(4-OCH2COOH) = O=C(O)COc1ccc(C(=O)*)cc1; Bip = N[C@@H](Cc1ccc(-c2ccccc2)cc1)C(=O)O; 2Pal = N[C@@H](Cc1ccccn1)C(=O)O; 2Thi = N[C@@H](Cc1cccs1)C(=O)O; Cha = N[C@@H](CC1CCCCC1)C(=O)O; Chg = N[C@H](C(=O)O)C1CCCCC1; Tle = CC(C)(C)[C@H](N)C(=O)O; ξAze = O=C(O)C1CCN1; Sar = CNCC(=O)O
These molecules were tested against TNFα (Homo sapiens, UniProt P01375) (assay: TNF-Induced HEK-Blue Assay). Conditions: summary statement for all examples; read-out: IC50 values measured in the TNF induced HEK-Blue assay.
Format: cell-based

By UniProt entry, the sequences of proteins in these tests, tags left out. Residues count along the entry.
UniProt P01375, 77-233 limits assumed: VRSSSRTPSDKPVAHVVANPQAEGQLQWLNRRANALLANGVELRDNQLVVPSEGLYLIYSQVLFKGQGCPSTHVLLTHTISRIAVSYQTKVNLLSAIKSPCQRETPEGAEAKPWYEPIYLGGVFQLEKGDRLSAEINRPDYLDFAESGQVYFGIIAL

pIC50, ≥ 4.60:
CC(=O)Nc1ccc(-c2ccc(C[C@@H]3NC(=O)[C@H](Cc4ccc(-c5ccccc5)cc4)NC(=O)[C@H](CN4CCOCC4)NC(=O)CSC[C@@H](C(=O)NCC(N)=O)NC(=O)[C@H](CC(C)C)NC(=O)[C@H](Cc4ncc[nH]4)NC(=O)[C@H](C4CCCCC4)NC(=O)[C@@H]4CCCN4C(=O)[C@H](C(C)C)NC(=O)[C@@H](CCCNC(=N)N)NC(=O)[C@H](CC(=O)O)NC(=O)[C@H](Cc4cccs4)NC(=O)CN(C)C3=O)cc2)cc1 [Example 463] ({CH2CO}-[Ala(morpholin-4-yl)][Bip][Bip(4'-NHAc)][Sar][2Thi]D[dR]VP[Chg][Ala(imidazol-2-yl)]LCG-NH2; thioether N-13)
CC[C@H](C)[C@@H]1NC(=O)[C@@H]2CCCN2C(=O)[C@H](C(C)C)NC(=O)[C@@H](CCCNC(=N)N)NC(=O)[C@H](CC(=O)O)NC(=O)[C@H](Cc2ccccn2)NC(=O)CN(C)C(=O)[C@H](Cc2ccc(-c3ccc(NC(C)=O)cc3)cc2)NC(=O)[C@H](Cc2ccc(-c3ccccc3)cc2)NC(=O)[C@H](CN2CCOCC2)NC(=O)CSC[C@@H](C(=O)NCC(N)=O)NC(=O)[C@H](CC(C)C)NC(=O)[C@H](Cc2ncc[nH]2)NC1=O [Example 464] ({CH2CO}-[Ala(morpholin-4-yl)][Bip][Bip(4'-NHAc)][Sar][2Pal]D[dR]VPI[Ala(imidazol-2-yl)]LCG-NH2; thioether N-13)
CC(=O)Nc1ccc(-c2ccc(C[C@@H]3NC(=O)[C@H](Cc4ccc(-c5ccccc5)cc4)NC(=O)[C@H](CC4CCCCC4)NC(=O)CSC[C@@H](C(=O)NCC(N)=O)NC(=O)[C@H](CC(C)C)NC(=O)[C@H](Cc4ncc[nH]4)NC(=O)[C@H](C(C)C)NC(=O)C4CCN4C(=O)[C@H](C(C)C)NC(=O)[C@@H](CCCNC(=N)N)NC(=O)[C@H](CC(=O)O)NC(=O)[C@@H]4CCCN4C(=O)CN(C)C3=O)cc2)cc1 (stereo partly drawn) [Example 466] ({CH2CO}-[Cha][Bip][Bip(4'-NHAc)][Sar]PD[dR]V[ξAze]V[Ala(imidazol-2-yl)]LCG-NH2; thioether N-13)
CC[C@H](C)[C@@H]1NC(=O)[C@@H](CCCNC(=N)N)NC(=O)[C@H](CC(=O)O)NC(=O)[C@H](Cc2cnc[nH]2)NC(=O)CN(C)C(=O)[C@H](Cc2ccc(-c3ccc(NC(=O)c4cccc(CC(=O)O)c4)cc3)cc2)NC(=O)[C@H](Cc2ccc(-c3ccccc3)cc2)NC(=O)[C@H](CN2CCOCC2)NC(=O)CSC[C@@H](C(=O)NCC(N)=O)NC(=O)[C@H](CC(C)C)NC(=O)[C@H](Cc2cnc[nH]2)NC(=O)[C@H](C(C)C)NC(=O)[C@@H]2CCCN2C1=O [Example 481] ({CH2CO}-[Ala(morpholin-4-yl)][Bip][Bip(4'-NHCO-C6H4-3-CH2COOH)][Sar]HD[dR]IPVHLCG-NH2; thioether N-13)
CC[C@H](C)[C@@H]1NC(=O)[C@@H](CCCNC(=N)N)NC(=O)[C@H](CC(=O)O)NC(=O)[C@H](Cc2cnc[nH]2)NC(=O)CN(C)C(=O)[C@H](Cc2ccc(-c3ccc(NC(=O)c4cccc(CC(=O)O)c4)cc3)cc2)NC(=O)[C@H](Cc2ccc(-c3ccc(C(=O)O)cc3)cc2)NC(=O)[C@H](C(C)(C)C)NC(=O)CSC[C@@H](C(=O)NCC(N)=O)NC(=O)[C@H](CC(C)C)NC(=O)[C@H](Cc2cnc[nH]2)NC(=O)[C@H](C(C)C)NC(=O)[C@@H]2CCCN2C1=O [Example 482] ({CH2CO}-[Tle][Bip(4'-COOH)][Bip(4'-NHCO-C6H4-3-CH2COOH)][Sar]HD[dR]IPVHLCG-NH2; thioether N-13)
CC[C@H](C)[C@@H]1NC(=O)[C@@H](CCCNC(=N)N)NC(=O)[C@H](CC(=O)O)NC(=O)[C@H](Cc2cnc[nH]2)NC(=O)CN(C)C(=O)[C@H](Cc2ccc(-c3ccc(NC(=O)c4ccc(CC(=O)O)cc4)cc3)cc2)NC(=O)[C@H](Cc2ccc(-c3ccccc3)cc2)NC(=O)[C@H](CN2CCOCC2)NC(=O)CSC[C@@H](C(=O)NCC(N)=O)NC(=O)[C@H](CC(C)C)NC(=O)[C@H](Cc2cnc[nH]2)NC(=O)[C@H](C(C)C)NC(=O)[C@@H]2CCCN2C1=O [Example 484] ({CH2CO}-[Ala(morpholin-4-yl)][Bip][Bip(4'-NHCO-C6H4-4-CH2COOH)][Sar]HD[dR]IPVHLCG-NH2; thioether N-13)
CC[C@H](C)[C@@H]1NC(=O)[C@@H](CCCNC(=N)N)NC(=O)[C@H](CC(=O)O)NC(=O)[C@H](Cc2cnc[nH]2)NC(=O)CN(C)C(=O)[C@H](Cc2ccc(-c3ccc(NC(=O)c4ccc(CC(=O)O)cc4)cc3)cc2)NC(=O)[C@H](Cc2ccc(-c3ccccc3)cc2)NC(=O)[C@H](C(C)(C)C)NC(=O)CSC[C@@H](C(=O)NCC(N)=O)NC(=O)[C@H](CC(C)C)NC(=O)[C@H](Cc2cnc[nH]2)NC(=O)[C@H](C(C)C)NC(=O)[C@@H]2CCCN2C1=O [Example 485] ({CH2CO}-[Tle][Bip][Bip(4'-NHCO-C6H4-4-CH2COOH)][Sar]HD[dR]IPVHLCG-NH2; thioether N-13)
CC[C@H](C)[C@@H]1NC(=O)[C@@H](CCCNC(=N)N)NC(=O)[C@H](CC(=O)O)NC(=O)[C@H](Cc2cnc[nH]2)NC(=O)CN(C)C(=O)[C@H](Cc2ccc(-c3ccc(NC(=O)c4ccc(CC(=O)O)cc4)cc3)cc2)NC(=O)[C@H](Cc2ccc(-c3ccc(C(=O)O)cc3)cc2)NC(=O)[C@H](C(C)(C)C)NC(=O)CSC[C@@H](C(=O)NCC(N)=O)NC(=O)[C@H](CC(C)C)NC(=O)[C@H](Cc2cnc[nH]2)NC(=O)[C@H](C(C)C)NC(=O)[C@@H]2CCCN2C1=O [Example 486] ({CH2CO}-[Tle][Bip(4'-COOH)][Bip(4'-NHCO-C6H4-4-CH2COOH)][Sar]HD[dR]IPVHLCG-NH2; thioether N-13)
CC[C@H](C)[C@@H]1NC(=O)[C@@H](CCCNC(=N)N)NC(=O)[C@H](CC(=O)O)NC(=O)[C@H](Cc2cnc[nH]2)NC(=O)CN(C)C(=O)[C@H](Cc2ccc(-c3ccc(NC(=O)c4ccc(CC(=O)O)cc4)cc3)cc2)NC(=O)[C@H](Cc2ccc(-c3ccc(C(=O)O)cc3)cc2)NC(=O)[C@H](CN2CCOCC2)NC(=O)CSC[C@@H](C(=O)NCC(N)=O)NC(=O)[C@H](CC(C)C)NC(=O)[C@H](Cc2cnc[nH]2)NC(=O)[C@H](C(C)C)NC(=O)[C@@H]2CCCN2C1=O [Example 487] ({CH2CO}-[Ala(morpholin-4-yl)][Bip(4'-COOH)][Bip(4'-NHCO-C6H4-4-CH2COOH)][Sar]HD[dR]IPVHLCG-NH2; thioether N-13)
CC[C@H](C)[C@@H]1NC(=O)[C@@H](CCCNC(=N)N)NC(=O)[C@H](CC(=O)O)NC(=O)[C@H](Cc2cnc[nH]2)NC(=O)CN(C)C(=O)[C@H](Cc2ccc(-c3ccc(NC(=O)c4ccc(CC(=O)O)cc4)cc3)cc2)NC(=O)[C@H](Cc2ccc(-c3ccc(C(=O)O)cc3)cc2)NC(=O)[C@H](CC2CCCCC2)NC(=O)CSC[C@@H](C(=O)NCC(N)=O)NC(=O)[C@H](CC(C)C)NC(=O)[C@H](Cc2cnc[nH]2)NC(=O)[C@H](C(C)C)NC(=O)[C@@H]2CCCN2C1=O [Example 488] ({CH2CO}-[Cha][Bip(4'-COOH)][Bip(4'-NHCO-C6H4-4-CH2COOH)][Sar]HD[dR]IPVHLCG-NH2; thioether N-13)
CC(C)C[C@@H]1NC(=O)[C@H](Cc2cnc[nH]2)NC(=O)[C@H](C(C)C)NC(=O)[C@@H]2CCCN2C(=O)[C@H](C(C)C)NC(=O)[C@@H](CCCNC(=N)N)NC(=O)[C@H](CC(=O)O)NC(=O)[C@H](Cc2cnc[nH]2)NC(=O)CN(C)C(=O)[C@H](Cc2ccc(-c3ccc(NC(=O)c4ccc(OCC(=O)O)cc4)cc3)cc2)NC(=O)[C@H](Cc2ccc(-c3ccccc3)cc2)NC(=O)[C@H](CC2CCCCC2)NC(=O)CSC[C@@H](C(=O)NCC(N)=O)NC1=O [Example 489] ({CH2CO}-[Cha][Bip][Bip(4'-NH)](Benzoyl(4-OCH2COOH))[Sar]HD[dR]VPVHLCG-NH2; thioether N-13)
CC(C)C[C@@H]1NC(=O)[C@H](Cc2cnc[nH]2)NC(=O)[C@H](C(C)C)NC(=O)[C@@H]2CCCN2C(=O)[C@H](C(C)C)NC(=O)[C@@H](CCCNC(=N)N)NC(=O)[C@H](CC(=O)O)NC(=O)[C@H](Cc2ccccc2)NC(=O)CN(C)C(=O)[C@H](Cc2ccc(-c3ccc(NC(=O)c4ccc(OCC(=O)O)cc4)cc3)cc2)NC(=O)[C@H](Cc2ccc(-c3ccccc3)cc2)NC(=O)[C@H](CN2CCOCC2)NC(=O)CSC[C@@H](C(=O)NCC(N)=O)NC1=O [Example 492] ({CH2CO}-[Ala(morpholin-4-yl)][Bip][Bip(4'-NH)](Benzoyl(4-OCH2COOH))[Sar]FD[dR]VPVHLCG-NH2; thioether N-13)
CC(C)C[C@@H]1NC(=O)[C@H](Cc2cnc[nH]2)NC(=O)[C@H](C(C)C)NC(=O)[C@@H]2CCCN2C(=O)[C@H](C(C)C)NC(=O)[C@@H](CCCNC(=N)N)NC(=O)[C@H](CC(=O)O)NC(=O)[C@@H]2CCCN2C(=O)CN(C)C(=O)[C@H](Cc2ccc(-c3ccc(NC(=O)c4ccc(OCC(=O)O)cc4)cc3)cc2)NC(=O)[C@H](Cc2ccc(-c3ccccc3)cc2)NC(=O)[C@H](CC2CCCCC2)NC(=O)CSC[C@@H](C(=O)NCC(N)=O)NC1=O [Example 493] ({CH2CO}-[Cha][Bip][Bip(4'-NH)](Benzoyl(4-OCH2COOH))[Sar]PD[dR]VPVHLCG-NH2; thioether N-13)
CC(C)C[C@@H]1NC(=O)[C@H](Cc2cnc[nH]2)NC(=O)[C@H](C(C)C)NC(=O)[C@@H]2CCCN2C(=O)[C@H](C(C)C)NC(=O)[C@@H](CCCNC(=N)N)NC(=O)[C@H](CC(=O)O)NC(=O)[C@H](Cc2ccccn2)NC(=O)CN(C)C(=O)[C@H](Cc2ccc(-c3ccc(NC(=O)c4ccc(OCC(=O)O)cc4)cc3)cc2)NC(=O)[C@H](Cc2ccc(-c3ccccc3)cc2)NC(=O)[C@H](CN2CCOCC2)NC(=O)CSC[C@@H](C(=O)NCC(N)=O)NC1=O [Example 494] ({CH2CO}-[Ala(morpholin-4-yl)][Bip][Bip(4'-NH)](Benzoyl(4-OCH2COOH))[Sar][2Pal]D[dR]VPVHLCG-NH2; thioether N-13)
CC(C)C[C@@H]1NC(=O)[C@H](Cc2cnc[nH]2)NC(=O)[C@H](C(C)C)NC(=O)[C@@H]2CCCN2C(=O)[C@H](C(C)C)NC(=O)[C@@H](CCCNC(=N)N)NC(=O)[C@H](CC(=O)O)NC(=O)[C@H](Cc2cnc[nH]2)NC(=O)CN(C)C(=O)[C@H](Cc2ccc(-c3ccc(NC(=O)c4ccc(OCC(=O)O)cc4)cc3)cc2)NC(=O)[C@H](Cc2ccc(-c3ccccc3)cc2)NC(=O)[C@H](CN2CCOCC2)NC(=O)CSC[C@@H](C(=O)NCC(N)=O)NC1=O [Example 495] ({CH2CO}-[Ala(morpholin-4-yl)][Bip][Bip(4'-NH)](Benzoyl(4-OCH2COOH))[Sar]HD[dR]VPVHLCG-NH2; thioether N-13)
